The target of experiment [1] is T1, phosphoribosyl pyrophosphate synthetase 1 (PRPS1), mouse, endogenous (mouse (endogenous in NIH3T3 and C57BL/6 tissue)) (UniProt Q9D7G0).
T1 sequence: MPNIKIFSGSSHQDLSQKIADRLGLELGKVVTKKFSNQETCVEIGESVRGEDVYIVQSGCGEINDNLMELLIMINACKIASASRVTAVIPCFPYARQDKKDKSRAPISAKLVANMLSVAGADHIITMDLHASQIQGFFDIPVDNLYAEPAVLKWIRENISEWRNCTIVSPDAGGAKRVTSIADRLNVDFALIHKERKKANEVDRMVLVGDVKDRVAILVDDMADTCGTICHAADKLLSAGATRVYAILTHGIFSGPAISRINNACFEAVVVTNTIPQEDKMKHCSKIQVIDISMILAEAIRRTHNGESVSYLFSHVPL
As to the kind of experiment: SEC; native whole-cell lysate of NIH3T3 AP1/AP2 KO cells on Yarra SEC-2000 (1 kDa to 300 kDa); fractions immunoblotted.

Experiment [2] deals with T2, endogenous PRPS1-mNG11-ALFA (knock-in) (mouse (endogenous in NIH3T3)) (UniProt Q9D7G0).
T2 sequence: T1 sequence
As to the kind of experiment: co-IP; ALFA-tag pulldown: lysate of NIH3T3 knock-in cells with endogenous PRPS1-ALFA on anti-ALFA nanobody agarose (ALFA Selector ST), 1 h, 4 °C; washes with 0.5 M NaCl, 0.5% Triton X-100.

The target in experiment [3] is T1, phosphoribosyl pyrophosphate synthetase 1 (PRPS1), mouse, endogenous (mouse (endogenous in NIH3T3 and C57BL/6 tissue)). In words: SEC; native lysate of kidney of 12-week-old male C57BL/6 mice on Superose 6 Increase 3.2/300; fractions immunoblotted.
The target is the same in experiment [4]. As to the kind of experiment: SEC; native whole cell lysate of parental NIH3T3 on Superose 6 Increase 3.2/300; fractions immunoblotted; internal standards of known native mass.
Experiment [5] deals with T3, phosphoribosyl pyrophosphate synthetase 1 (PRPS1), human, endogenous (human (endogenous in HEK293T)) (UniProt P60891).
T3 sequence: T1 sequence
As to the kind of experiment: SEC; native lysate of HEK293T cells fractionated by SEC; fractions immunoblotted (Supplementary Fig.5f).

The target in experiment [6] is T1, phosphoribosyl pyrophosphate synthetase 1 (PRPS1), mouse, endogenous (mouse (endogenous in NIH3T3 and C57BL/6 tissue)). As to the kind of experiment: SEC; native lysate of NIH3T3 P2/AP1/AP2 KO cells re-expressing exogenous PRPS2 (Supplementary Fig.6h); fractions immunoblotted.
For experiment [7] the target is unchanged. As to the kind of experiment: SEC; native lysate of NIH3T3 P2/AP1 KO cells (Supplementary Fig.7c); fractions immunoblotted.
The target of experiment [8] is T4, phosphoribosyl pyrophosphate synthetase 2 (PRPS2), mouse, endogenous (mouse (endogenous in NIH3T3 and C57BL/6 tissue)) (UniProt Q9CS42).
T4 sequence: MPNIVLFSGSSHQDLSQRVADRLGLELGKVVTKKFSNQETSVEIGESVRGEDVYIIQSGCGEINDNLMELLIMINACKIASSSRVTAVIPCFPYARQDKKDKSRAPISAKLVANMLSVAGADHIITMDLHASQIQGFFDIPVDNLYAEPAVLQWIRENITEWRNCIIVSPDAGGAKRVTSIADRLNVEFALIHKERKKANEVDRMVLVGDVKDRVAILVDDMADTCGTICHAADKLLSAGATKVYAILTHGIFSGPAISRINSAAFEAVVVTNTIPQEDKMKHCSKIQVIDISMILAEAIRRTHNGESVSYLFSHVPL
In words: SEC; native lysate of NIH3T3 P1/AP2 KO cells (Supplementary Fig.7d); fractions immunoblotted.

In experiment [9] the target is PRPS-associated protein 1 (PRPSAP1), mouse, endogenous (mouse (endogenous in NIH3T3 and C57BL/6 tissue)) (UniProt Q9D0M1). As to the kind of experiment: SEC; native whole-cell lysate of NIH3T3 P2/AP2 KO cells on Superose 6 Increase 3.2/300; fractions immunoblotted.
For experiment [10], the target named is T1, phosphoribosyl pyrophosphate synthetase 1 (PRPS1), mouse, endogenous (mouse (endogenous in NIH3T3 and C57BL/6 tissue)). In words: co-IP; PRPS1 pulldown in NIH3T3 P2/AP2 KO cells (Supplementary Fig.7b); how PRPS1 was captured is not told.
The target is the same in experiment [11]. In words: condition: only in P2/AP2 KO cells (without PRPS2 and PRPSAP2); SEC; native whole-cell lysate of NIH3T3 P2/AP2 KO cells on Superose 6 Increase 3.2/300; fractions immunoblotted.
The target of experiment [12] is T4, phosphoribosyl pyrophosphate synthetase 2 (PRPS2), mouse, endogenous (mouse (endogenous in NIH3T3 and C57BL/6 tissue)). As to the kind of experiment: SEC; native whole-cell lysates of NIH3T3 AP1/AP2 KO cells stably expressing one exogenous AP1 or AP2 isoform or AP1/AP2 chimera, on Superose 6 Increase 3.2/300; fractions immunoblotted.
Experiment [13] addresses PRPSAP1-ALFA, short isoform of AP1 (exogenous) (UniProt Q14558). In words: SEC; native lysate of NIH3T3 PRPS1-only (P2/AP1/AP2 KO) cells overexpressing AP1 (Supplementary Fig.7a); fractions immunoblotted.

The text below walks through data of article doi:10.1101/2024.10.01.616059 (bioRxiv, 2024).

Where a chain is given by its changes, count along the chain named. No constants are given. Whether binding was seen depends on the method and setting. For some of these results: Binding seen in cells or lysates may run through a third protein. Some results given as binding are weak or reduced against the parent protein; the word gives no strength.

B1: phosphoribosyl pyrophosphate synthetase 2 (PRPS2), mouse, endogenous (enzyme, UniProt Q9CS42 1-318, looked up)
chain: T4 sequence
notes: PRPS2, mouse, endogenous protein of NIH3T3 cells and mouse tissue; also called P2; source: endogenous, NIH3T3 (parental and CRISPR knockout clones), native lysate; endogenous, C57BL/6 mouse kidney, native lysate
In the case of B1, the binding entry in experiment [1], in experiment [2], in [3] and in experiment [4] was “binds” throughout.

B2: phosphoribosyl pyrophosphate synthetase 2 (PRPS2), human, endogenous (enzyme, UniProt P11908 1-318)
chain: T4 sequence with T160A, R163K, S263N, S285T
B2: in experiment [5], the binding result is “binds”.

B3: exogenous PRPS2 re-expressed in P2/AP1/AP2 KO cells (enzyme, UniProt Q9CS42 1-318)
chain: T4 sequence
B3: in experiment [6], the binding entry is listed as “binds”.

B4: PRPS-associated protein 2 (PRPSAP2), mouse, endogenous (protein, UniProt Q8R574 1-369)
chain: MFCVAPPELETKMNITKGGLVLFSANSNSSCMELSKKIAERLGVEMGKVQVYQEPNRETRVQIQESVRGKDVFIIQTISKDVNTTIMELLIMVYACKTSCAKSIIGVIPYFPYSKQCKMRKRGSIVSKLLASMMCKAGLTHLITMDLHQKEIQGFFNIPVDNLRASPFLLQYIQEEIPDYRNAVIVAKSPASAKRAQSFAERLRLGIAVIHGEAQDAESDLVDGRHSPPMVRSVAAIHPSLEIPMLIPKEKPPITVVGDVGGRIAIIVDDIIDDVDSFLAAAETLKERGAYKIFVMATHGLLSSDAPRLIEESAIDEVVVTNTIPHEIQKLQCPKIKTVDISMILSEAIRRIHNGESMSYLFRNIGLDD
On to B4, for which the binding entry in experiment [2], in [7], in experiment [3] and in experiment [4] was “binds” throughout.

B5: PRPS-associated protein 1 (PRPSAP1), mouse, endogenous (protein, UniProt Q9D0M1 1-356)
chain: MNAARTGYRVFSANSTAACTELAKRITERLGAELGKSVVYQETNGETRVEIKESVRGQDIFIIQTIPRDVNTAVMELLIMAYALKTACARNIIGVIPYFPYSKQSKMRKRGSIVCKLLASMLAKAGLTHIITMDLHQKEIQGFFSFPVDNLRASPFLLQYIQEEIPNYRNAVIVAKSPDAAKRAQSYAERLRLGLAVIHGEAQCTELDMDDGRHSPPMVKNATVHPGLELPLMMAKEKPPITVVGDVGGRIAIIVDDIIDDVESFVAAAEILKERGAYKIYVMATHGILSAEAPRLIEESPIDEVVVTNTVPHELQKLQCPKIKTVDISLILSEAIRRIHNGESMAYLFRNITVDD
For the molecule B5, the binding result in [8] is recorded as “binds”; in experiment [9] it was “binds”; in experiment [10], “binds weakly”; in [11], “no binding”.

B6: PRPSAP1-ALFA, short isoform of AP1 (exogenous) (protein, UniProt Q14558 1-356)
chain: B5 chain with P301S, I302V, L315V
B6: the binding entry in [12] and in experiment [13] was “binds” each time.
